# PubChem BioAssay AID1508588 | Peter MacCallum Cancer Centre, 2020
# Purpose: 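Which gene losses make BRAF-mutant melanoma cells more responsive to vemurafenib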 (primary screen)
# Cells: human WM266.4 melanoma cells (BRAF V600 mutant)
# Reagent: siRNA pool against human genes, 40 nM
# Duration: 96 h from transfection to read-out
# Treatment: vemurafenib 300 nM (about IC25), added 48 h after transfection, for 48 h; comparison arm got DMSO vehicle only
# Measured: 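Ratios to non-targeting siRNA for cell gain, counted as DAPI nuclei after minus before drug and averaged over two replicates, and for absorbance-read medium lactate per cell; both binned into fold-change classes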
# Reading the numbers: cell gain with vemurafenib: higher = more cell gain than with non-targeting siRNA; lactate per cell with vemurafenib: higher = more lactate made per cell
# Call rule: 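Enhancement is called by pairing each knock-down's vehicle-arm and drug-arm fold-change classes for viability or glycolysis; which class combinations qualify is not given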
# Meaning of the calls: active = enhances vemurafenib effect; inactive = no enhancement seen
# In all, the deposit lists about 18,000 reagents; below is an unselected part. 790 of them (4.4%) were called active. 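Calls rest on a combination of fold-change classes in drug and vehicle arms, not all shown here.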
gene symbol,cell gain with vemurafenib,lactate per cell with vemurafenib,Call
CYP24A1,0.5,0.39,inactive
ANKDD1A,0.93,0.65,inactive
THOC6,0.91,0.82,inactive
MRPS14,0.92,1.04,inactive
CCDC50,0.6,0.29,inactive
STAP2,0.84,0.86,inactive
CDH16,0.31,2.17,inactive
GPR146,0.31,0.64,inactive
OR2T29,0.46,0.73,inactive
ECRG4,0.96,0.57,inactive
GRPEL1,0.76,0.85,inactive
KCNJ5,0.64,1.34,inactive
SOWAHB,0.29,1.72,inactive
OR10Z1,0.41,1.23,inactive
MPL,0.58,0.66,inactive
SNCG,0.1,1.9,inactive
CCHCR1,0.72,0.24,inactive
CT55,0.88,0.58,inactive
NHSL3,0.95,1.26,inactive
CLEC6A,0.12,1.34,inactive
PNPLA4,0.89,0.88,inactive
CRELD2,0.7,1,inactive
AGPAT5,0.43,0.92,inactive

4 successive records from above, for reference:
gene symbol,cell gain with vemurafenib,lactate per cell with vemurafenib,Call
MPL,0.58,0.66,inactive
SNCG,0.1,1.9,inactive
CCHCR1,0.72,0.24,inactive
CT55,0.88,0.58,inactive

More records follow:
gene symbol,cell gain with vemurafenib,lactate per cell with vemurafenib,Call
C1QL4,0.54,1.09,inactive
TNFSF13,1.09,0.64,inactive
CD52,0.32,1.94,inactive
VCAM1,0.8,0.5,inactive
CEBPD,0.22,1.62,inactive
FAM24A,0.89,1.08,inactive
RDH12,0.85,0.66,inactive
CTSV,0.83,0.82,inactive
SLC22A23,1.14,0.65,inactive
RAB39B,0.36,1.08,inactive
SIK2,0.29,1.67,inactive
CCL17,-0.05,1.52,inactive
PRORP,1.05,0.38,inactive
PNCK,0.28,1.26,inactive
ATRN,0.54,0.56,inactive
GATAD2B,0.11,0.78,inactive
GPR153,0.01,2.25,inactive
DYNLT2B,0.56,0.38,inactive
HNRNPU,0.49,0.65,inactive
TSPAN31,0.8,0.55,inactive
ZNF415,0.55,0.59,inactive
C8orf58,0.65,0.78,inactive
SPANXN3,0.55,0.56,inactive
CCL15,0.95,0.82,inactive
C15orf32,1.03,1.06,inactive
SORT1,-0.02,2.66,inactive
TTI1,0.63,1.79,inactive
SLC25A39,0.88,0.84,inactive
LARP1,0.74,0.72,inactive
NAP1L5,0.67,1.44,inactive
IGSF6,0.6,0.9,inactive
PRM3,0.37,0.48,active
STRAP,0.76,0.37,inactive
RECK,0.88,1.07,inactive
